Reference: article PMC7819943, “Rice protein-binding microarrays: a tool to detect cis-acting elements near promoter regions in rice”
The other results are listed elsewhere or left out.

biological target: T1, OsSMF1 (Oryza sativa, UniProt Q6ZLB0 1-436); assay: protein-binding microarray (RPBM); PBS, 2% BSA, 51.3 ng/ul salmon testes DNA, 50 uM zinc acetate, 200 nM TF, 25 C, 1 h; high values mean tight binding; settings: protein: recombinant; tags: N-terminal polyhistidine and DsRed monomer fusion (pET32a); chain copies: 2; label: CyDye5-dUTP incorporated in the synthesized complementary strand; 3' TTTTT single-stranded linker to array surface; dsDNA, one strand shown
T1 sequence: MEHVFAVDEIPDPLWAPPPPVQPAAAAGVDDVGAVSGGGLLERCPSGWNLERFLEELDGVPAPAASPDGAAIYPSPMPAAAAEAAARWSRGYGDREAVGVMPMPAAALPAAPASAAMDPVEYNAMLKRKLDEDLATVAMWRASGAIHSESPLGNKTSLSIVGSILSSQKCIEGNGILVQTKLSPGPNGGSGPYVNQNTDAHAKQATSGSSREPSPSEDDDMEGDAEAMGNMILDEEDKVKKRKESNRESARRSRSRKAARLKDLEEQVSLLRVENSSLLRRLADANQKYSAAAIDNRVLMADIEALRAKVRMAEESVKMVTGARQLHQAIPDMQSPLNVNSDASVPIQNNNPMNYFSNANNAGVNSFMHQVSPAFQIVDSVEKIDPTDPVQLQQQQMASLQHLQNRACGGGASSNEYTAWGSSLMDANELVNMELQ
Outline: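 In PBS with 2% BSA, salmon testes DNA and 50 µM zinc acetate, 200 nM protein was incubated on a custom Agilent array at 25 °C for 1 h and then washed off. The array had been made double-stranded by primer extension with Cy5-dUTP and blocked with 2% BSA. The proteins were transcription factors fused N-terminally to polyhistidine and DsRed, expressed in E. coli BL21-CodonPlus and purified on Ni–NTA. The binding signal is per-feature fluorescence intensity (arbitrary units) from an Axon 4000B scanner.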

Point of comparison: “CCAGCTCGTGGCAATCCGACCGCCTACGTGTCCACATCGCCGGAGTCACCTAGTGCAG”, binding signal 13100 fluorescence intensity (a.u.). Against it:
- TGCAACACGGCTTTGATGAGATCACGTGTGAGCAAGGATTCGGAGTCACCTAGTGCAG — lower, 3380 fluorescence intensity (a.u.)
- CGACGCCTACGCCTACGCGGTCGGAAGCTTCCGGTCGCCGCGGAGTCACCTAGTGCAG — higher, 23500 fluorescence intensity (a.u.)
- TTGCCTGCATTGCTTCTGCATGATGCGTCTGTATTTCAAGCGGAGTCACCTAGTGCAG — higher, 30900 fluorescence intensity (a.u.)
- TACCTACACTATTGCTAGGCAGAAATTTCTTTTCACCCATCGGAGTCACCTAGTGCAG — higher, 29200 fluorescence intensity (a.u.)
- TCGACCGTTGCCACCTCGCAGCGTAGTCAGAGACCCACCCCGGAGTCACCTAGTGCAG — lower, 5160 fluorescence intensity (a.u.)
- ACGACGCCATTCCGGGAAATGTCATTGTGGCGAAACCCACCGGAGTCACCTAGTGCAG — lower, 3400 fluorescence intensity (a.u.)
- TCTAGCTCTGACTCAAATCGTACTGCATTATCACCAGCTCCGGAGTCACCTAGTGCAG — lower, 5150 fluorescence intensity (a.u.)
- GATCTGGAGTCCGGCGAGGACTCCTCCGACTCTGTCACCTCGGAGTCACCTAGTGCAG — lower, 3370 fluorescence intensity (a.u.)
- ACGCTGACTCTGTCAATATCAACATCTTCAGTTACTATTCCGGAGTCACCTAGTGCAG — lower, 5460 fluorescence intensity (a.u.)
- TTTGGAGGACGGTTTCACGGACGTGAGTGTTGACATGGAGCGGAGTCACCTAGTGCAG — lower, 3320 fluorescence intensity (a.u.)
- TAACCAAGTGTGACACGTGAGCCATGAACTTACGATCGAACGGAGTCACCTAGTGCAG — lower, 3270 fluorescence intensity (a.u.)
- CGACGAGAAACTCAAGGTTGTCTCTGTCATTGGAGTTGGACGGAGTCACCTAGTGCAG — lower, 3210 fluorescence intensity (a.u.)
- TTTTCTATTTGGTTGTAATAGCATGATGTGTACTAAGCATCGGAGTCACCTAGTGCAG — lower, 3690 fluorescence intensity (a.u.)
- GTCACAGATTCGGTATGAATCTTTGCCACGTTCATGGATGCGGAGTCACCTAGTGCAG — lower, 5750 fluorescence intensity (a.u.)
- AGAAGTGTGGAATGCATGGTTTAGCCTTGTGAGCCCCACACGGAGTCACCTAGTGCAG — lower, 3370 fluorescence intensity (a.u.)
- TTAATACCTGGTCTCACCTGTCATACACACATTACGTCTTCGGAGTCACCTAGTGCAG — lower, 3570 fluorescence intensity (a.u.)
- ATCAAAATGATGTATCGTACAGTCATTGCGTCAATCGGTACGGAGTCACCTAGTGCAG — lower, 6100 fluorescence intensity (a.u.)
- ACGCCGCCGGTTCTGTTTCGCCGTCAGCGTTGTCTTCCCCCGGAGTCACCTAGTGCAG — lower, 4440 fluorescence intensity (a.u.)
- GGACTGGATATTGGATAGCATGCGAAAAGTCAGTTACGTGCGGAGTCACCTAGTGCAG — lower, 3490 fluorescence intensity (a.u.)
- ATACCTCTTATTAAATAGAATGTTTATGAGTGGACGTGTACGGAGTCACCTAGTGCAG — lower, 3780 fluorescence intensity (a.u.)
- GTGAATATAAAGACTGTGTCAACACGTATATGTTCATATGCGGAGTCACCTAGTGCAG — lower, 3340 fluorescence intensity (a.u.)
- GGCGATAGTAACCATCTCCATCCCTTCTTCTCAGTTTAGACGGAGTCACCTAGTGCAG — lower, 3290 fluorescence intensity (a.u.)
- CTGCACACACGTGTCTTGCTGAATTCCTCCACCGTGGCAACGGAGTCACCTAGTGCAG — lower, 6480 fluorescence intensity (a.u.)
- ATTGCAGTGGACTGAAACATTCTTTCGCTATTTGCTGAAACGGAGTCACCTAGTGCAG — lower, 3590 fluorescence intensity (a.u.)
- CCAGGTCCCAGCCAGGGGTTTATTAGCTGATTCAAGACGTCGGAGTCACCTAGTGCAG — higher, 14900 fluorescence intensity (a.u.)
- CTCATCTCTCTCGTTTTCCTCGCACACGCTTTTCAAACTGCGGAGTCACCTAGTGCAG — lower, 3680 fluorescence intensity (a.u.)
- CATCCCTTTCATCTATTTACACCAATGACAGGTGGGTACACGGAGTCACCTAGTGCAG — lower, 4390 fluorescence intensity (a.u.)
- CTAAATCTTTGCCCGTCACAGATGAGTGTTATCAGTGACGCGGAGTCACCTAGTGCAG — lower, 4140 fluorescence intensity (a.u.)
- TCAAACAATAGTGTAAATATAGCTACGTAAGTTCATTGACCGGAGTCACCTAGTGCAG — lower, 3470 fluorescence intensity (a.u.)
- GCAACGTTGCTGGCACGTGCGCACGAATTAGCTCTCATGACGGAGTCACCTAGTGCAG — lower, 3800 fluorescence intensity (a.u.)
- AAAACAAGGTTAGTTTGCCACCTCCTTTTCCTCTGTCGCCCGGAGTCACCTAGTGCAG — lower, 3180 fluorescence intensity (a.u.)
- TACCTCGCGAGTGCTGGGGAGGATTGCGTGATCCATGTCTCGGAGTCACCTAGTGCAG — higher, 14800 fluorescence intensity (a.u.)
- GCGCCACCCCTTCCCTCTCCCTGACACGTGGGCCCCGCACCGGAGTCACCTAGTGCAG — higher, 13200 fluorescence intensity (a.u.)
- CCCTGGCGCGGCTCTCGCACGCCTCGTCGGAGAACGCGCACGGAGTCACCTAGTGCAG — lower, 4040 fluorescence intensity (a.u.)
- GTAAAGCACAATTCGAGGATTAGCTCCAGAATCCCAGATCCGGAGTCACCTAGTGCAG — lower, 5550 fluorescence intensity (a.u.)
- GCCACGCGAATCCACGCCGCCGCCGCCTCTTGACCTAGCGCGGAGTCACCTAGTGCAG — lower, 4050 fluorescence intensity (a.u.)
- CTTGTTTCAGTGTTGACATTGGTTATTTCTCAATTCATTCCGGAGTCACCTAGTGCAG — lower, 6570 fluorescence intensity (a.u.)
- CCGGGGACTCGGCAGCGGCGGCAGATCCGGAGGCAAAGCACGGAGTCACCTAGTGCAG — higher, 30500 fluorescence intensity (a.u.)
- GTGCAGCGTGGAGACACGCTGACGCACATGCAGAAACCGACGGAGTCACCTAGTGCAG — lower, 3810 fluorescence intensity (a.u.)
- AGCTCGATCTAGATGGCGTCATCGCTGCTATTGTCGTAGTCGGAGTCACCTAGTGCAG — higher, 16200 fluorescence intensity (a.u.)
- GCGGCTGAATTAATCTCCATCTGGCGAGCATCCACATCCTCGGAGTCACCTAGTGCAG — higher, 52300 fluorescence intensity (a.u.)
